The results in this text go back to the supplement of paper PMC4635364.

For test [1], the system named is ReNCell VM. As to the kind of experiment: neuronal differentiation score (DCX+ cell fraction vs untreated, manual image score) (score (-3 to 3)); higher = more neuronal differentiation. Conditions: 2 uM, 2 weeks.
Test [2] has as its system ReNCell VM. The experiment in a line: dopaminergic neuron differentiation score (TH+ cell fraction vs untreated, manual image score) (score (0 to 3)); higher = more TH+ dopaminergic neuron differentiation. Particulars: 2 uM, 4 weeks, BDNF 10 ng/ml + GDNF 10 ng/ml.

Molecules are shown by their SMILES. Structures can show the parent of a compound that is named as a salt. This is one part of the list. Repeats in this data set agree poorly, so a single value says little.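 Human fetal ventral-midbrain neural progenitor line ReNCell VM, differentiated without mitogens. Images stained for doublecortin (early neurons) or tyrosine hydroxylase (dopaminergic neurons) were scored by blinded raters against untreated wells (0 = no change). Repeats and both raters were averaged, and compounds averaging 2 or higher were picked as hits for retesting.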

For `COc1c(N2C[C@@H]3CCCN[C@@H]3C2)c(F)cc2c(=O)c(C(=O)O)cn(C3CC3)c12`, in the test on ReNCell VM [1] (library: Spectrum), the neuronal differentiation score is inactive: 1. In the test with ReNCell VM [2] (library: Spectrum), the “dopaminergic neuron differentiation score” value was inactive: 0.

With `CNCC[C@@H](Oc1ccccc1C)c1ccccc1` [Tomoxetine], the neuronal differentiation score in the test on ReNCell VM [1] (library: LOPAC) is inactive: 0. In addition, the “dopaminergic neuron differentiation score” value with ReNCell VM [2] (library: LOPAC) is inactive: 0.

Regarding `CN1CCc2cc(O)c(O)cc2C(c2ccccc2)C1` (stereo not drawn), the neuronal differentiation score in the test on ReNCell VM [1] (library: LOPAC) was inactive: 0. Further, the “dopaminergic neuron differentiation score” value with ReNCell VM [2] (library: LOPAC) is inactive: 0.

Regarding `CO[C@@]12[C@H](COC(N)=O)C3=C(C(=O)C(C)=C(N)C3=O)N1C[C@@H]1N[C@@H]12` [mitomycin C], the neuronal differentiation score in the test with ReNCell VM [1] (library: Natural) is inactive: 0. In addition, the “dopaminergic neuron differentiation score” value with ReNCell VM [2] (library: Natural) is inactive: 0.

Consider `NC(=O)c1ncn([C@@H]2O[C@H](CO)[C@@H](O)[C@H]2O)c1O` [Mizoribine], for which the neuronal differentiation score in the test with ReNCell VM [1] (library: LOPAC) is inactive: 0. Also, in the test on ReNCell VM [2] (library: LOPAC), the “dopaminergic neuron differentiation score” value was inactive: 0.

Take `NS(=O)(=O)C#Cc1ccccc1` [Pifithrin->m]: the neuronal differentiation score in the test on ReNCell VM [1] (library: Tocriscreen) was inactive: 0. For the same compound, in the test with ReNCell VM [2] (library: Tocriscreen), the “dopaminergic neuron differentiation score” value was inactive: 0.

For `O=C(O)/C=C/c1ccc(O)c(O)c1` [Caffeic acid], in the test on ReNCell VM [1] (library: Phytochemical), the neuronal differentiation score is inactive: 0. For the same compound, the “dopaminergic neuron differentiation score” value in the test on ReNCell VM [2] (library: Phytochemical) is inactive: 0.

Take `COP(=O)(OC)OC(c1ccc(Cl)cc1)P(=O)(OC)OC` (stereo not drawn): in the test on ReNCell VM [1] (library: Tocriscreen), the neuronal differentiation score is inactive: 0. Further, the “dopaminergic neuron differentiation score” value with ReNCell VM [2] (library: Tocriscreen) is inactive: 0.

As to `COCCc1ccc(OCC(O)CNC(C)C)cc1` (stereo not drawn), the neuronal differentiation score in the test on ReNCell VM [1] (library: Spectrum) was inactive: 0. Besides, the “dopaminergic neuron differentiation score” value with ReNCell VM [2] (library: Spectrum) was inactive: 0.

Turning to `CCC(C)(C)c1ccc(CC(C)CN2C[C@@H](C)O[C@@H](C)C2)cc1` (stereo partly drawn), the neuronal differentiation score with ReNCell VM [1] (library: Spectrum) is inactive: 0. Also, the “dopaminergic neuron differentiation score” value with ReNCell VM [2] (library: Spectrum) is inactive: 0.

As for `O=c1oc2cc(O)ccc2s1`, the neuronal differentiation score with ReNCell VM [1] (library: Spectrum) is inactive: 0. Also, the “dopaminergic neuron differentiation score” value with ReNCell VM [2] (library: Spectrum) was inactive: 0.

On to `NCCCNCCCCNCCCN`, for which, in the test on ReNCell VM [1] (library: Spectrum), the neuronal differentiation score is inactive: 0. Moreover, in the test with ReNCell VM [2] (library: Spectrum), the “dopaminergic neuron differentiation score” value is inactive: 0.

`O=C([O-])c1ccccc1O.[Na+]`: the neuronal differentiation score in the test with ReNCell VM [1] (library: Spectrum) was inactive: 0. Moreover, the “dopaminergic neuron differentiation score” value in the test on ReNCell VM [2] (library: Spectrum) was inactive: 0.

Take `O=S(=O)(O)NC1CCCCC1`: the neuronal differentiation score in the test with ReNCell VM [1] (library: Spectrum) was inactive: 0. In addition, the “dopaminergic neuron differentiation score” value in the test on ReNCell VM [2] (library: Spectrum) is inactive: 0.

Regarding `N[C@H](C(=O)O)[C@H](OCc1ccccc1)C(=O)O` (racemic), the neuronal differentiation score in the test with ReNCell VM [1] (library: Tocriscreen) is inactive: 0. Moreover, the “dopaminergic neuron differentiation score” value with ReNCell VM [2] (library: Tocriscreen) is inactive: 0.

With `Clc1ccc2nsnc2c1NC1=NCCN1` [Tizanidine hydrochloride], in the test with ReNCell VM [1] (library: Tocriscreen), the neuronal differentiation score is inactive: 0. The “dopaminergic neuron differentiation score” value with ReNCell VM [2] (library: Tocriscreen) was inactive: 0.

Regarding `CCC(=O)c1ccc(O)cc1`, the neuronal differentiation score in the test on ReNCell VM [1] (library: Spectrum) was inactive: 0. For the same compound, the “dopaminergic neuron differentiation score” value with ReNCell VM [2] (library: Spectrum) is inactive: 0.

Consider `Cc1cc(Cn2cnc3c2C[C@@H](C(=O)O)N(C(=O)C(c2ccccc2)c2ccccc2)C3)ccc1N`, for which the neuronal differentiation score with ReNCell VM [1] (library: LOPAC) was inactive: 0. Also, the “dopaminergic neuron differentiation score” value in the test on ReNCell VM [2] (library: LOPAC) is inactive: 0.

As for `N=C(N)SCCN` [2-(2-Aminoethyl)isothiourea dihydrobromide], the neuronal differentiation score in the test on ReNCell VM [1] (library: LOPAC) was inactive: 0. Further, the “dopaminergic neuron differentiation score” value in the test on ReNCell VM [2] (library: LOPAC) was inactive: 0.

Take `CC(=O)OCC(=O)[C@@]12OC3(CCCC3)O[C@@H]1C[C@H]1[C@@H]3CCC4=CC(=O)C=C[C@]4(C)[C@@]3(F)[C@@H](O)C[C@@]12C`: in the test on ReNCell VM [1] (library: Spectrum), the neuronal differentiation score is inactive: 1. Also, the “dopaminergic neuron differentiation score” value in the test with ReNCell VM [2] (library: Spectrum) was inactive: 0.

As for `O=c1c2cc(O)c(O)cc2oc2cc(O)c([C@@H]3O[C@H](CO)[C@@H](O)[C@H](O)[C@H]3O)c(O)c12`, the neuronal differentiation score with ReNCell VM [1] (library: Spectrum) was inactive: 0. In addition, the “dopaminergic neuron differentiation score” value in the test on ReNCell VM [2] (library: Spectrum) is inactive: 0.

`CN[C@@H]1[C@@H](O)[C@@H](O[C@@H]2[C@@H](O)[C@H](O[C@H]3OC(CN)=CC[C@H]3N)[C@@H](N)C[C@H]2N)OC[C@]1(C)O` [Sisomicin sulfate]: in the test with ReNCell VM [1] (library: Prestwick), the neuronal differentiation score is inactive: 0. In addition, in the test on ReNCell VM [2] (library: Prestwick), the “dopaminergic neuron differentiation score” value is inactive: 0.

As for `C[C@H]1O[C@@H](n2cc(F)c(=O)[nH]c2=O)[C@H](O)[C@@H]1O` [5-fluoro-5'-deoxyuridine], the neuronal differentiation score in the test with ReNCell VM [1] (library: LOPAC) is inactive: 0. Besides, the “dopaminergic neuron differentiation score” value with ReNCell VM [2] (library: LOPAC) is inactive: 0.

Regarding `CC1CC2C3CCC4=CC(=O)C=CC4(C)C3(F)C(O)CC2(C)C1C(=O)CO` (stereo not drawn), the neuronal differentiation score with ReNCell VM [1] (library: Spectrum) was inactive: 0. Further, in the test on ReNCell VM [2] (library: Spectrum), the “dopaminergic neuron differentiation score” value was inactive: 0.

On to `Nc1ccc(C(=O)Oc2ccccc2)c(O)c1`, for which the neuronal differentiation score in the test with ReNCell VM [1] (library: Spectrum) is inactive: 0. Also, the “dopaminergic neuron differentiation score” value in the test on ReNCell VM [2] (library: Spectrum) is inactive: 0.

Regarding `O=C(CCCN1CCC(O)(c2ccc(Br)cc2)CC1)c1ccc(F)cc1` [Bromperidol], the neuronal differentiation score in the test with ReNCell VM [1] (library: Prestwick) was inactive: 0. In the test on ReNCell VM [2] (library: Prestwick), the “dopaminergic neuron differentiation score” value was inactive: 0.

For the compound `Nc1ccn([C@@H]2O[C@H](CO)[C@@H](O)[C@H]2O)c(=O)n1`, in the test on ReNCell VM [1] (library: Spectrum), the neuronal differentiation score is inactive: 0. Further, the “dopaminergic neuron differentiation score” value in the test with ReNCell VM [2] (library: Spectrum) was inactive: 0.

For `Cc1cccc(C(=O)O)c1O`, the neuronal differentiation score in the test on ReNCell VM [1] (library: Spectrum) is inactive: 0. In the test with ReNCell VM [2] (library: Spectrum), the “dopaminergic neuron differentiation score” value is inactive: 0.

With `C[C@@H]1O[C@@H](O[C@H]2[C@H](Oc3cc(O)c4c(=O)cc(-c5ccc(O)cc5)oc4c3)O[C@H](CO)[C@@H](O)[C@@H]2O)[C@H](O)[C@H](O)[C@H]1O`, the neuronal differentiation score in the test with ReNCell VM [1] (library: Spectrum) is inactive: 0. For the same compound, the “dopaminergic neuron differentiation score” value in the test with ReNCell VM [2] (library: Spectrum) is inactive: 0.

With `O=C(O)c1ccccc1C(=O)Nc1ccc(S(=O)(=O)Nc2nccs2)cc1`, the neuronal differentiation score in the test on ReNCell VM [1] (library: Spectrum) is inactive: 0. Further, in the test with ReNCell VM [2] (library: Spectrum), the “dopaminergic neuron differentiation score” value is inactive: 0.

As for `C[C@@H]1C[C@H]2[C@@H]3C[C@H](F)C4=CC(=O)C=C[C@]4(C)[C@@]3(F)[C@@H](O)C[C@]2(C)[C@@]1(O)C(=O)CO` [Flumethasone], in the test with ReNCell VM [1] (library: Prestwick), the neuronal differentiation score is inactive: 0. For the same compound, the “dopaminergic neuron differentiation score” value in the test with ReNCell VM [2] (library: Prestwick) was inactive: 0.

Take `Clc1ccc2c(c1)N=C(N1CCNCC1)c1ccccc1N2` [N-Desmethylclozapine]: in the test with ReNCell VM [1] (library: Tocriscreen), the neuronal differentiation score was inactive: 0. The “dopaminergic neuron differentiation score” value in the test with ReNCell VM [2] (library: Tocriscreen) is inactive: 0.

In the case of `NCCOB(c1ccccc1)c1ccccc1`, the neuronal differentiation score in the test with ReNCell VM [1] (library: Spectrum) is inactive: 0. Also, the “dopaminergic neuron differentiation score” value in the test with ReNCell VM [2] (library: Spectrum) is inactive: 0.

Consider `CC[C@]1(O)C[C@@H]2CN(CCc3c([nH]c4ccccc34)[C@@](C(=O)OC)(c3cc4c(cc3OC)N(C)[C@H]3[C@@](O)(C(=O)OC)[C@H](OC(C)=O)[C@]5(CC)C=CCN6CC[C@]43[C@@H]65)C2)C1` [Vinblastine sulfate], for which the neuronal differentiation score in the test on ReNCell VM [1] (library: Tocriscreen) was inactive: 0. The “dopaminergic neuron differentiation score” value with ReNCell VM [2] (library: Tocriscreen) is inactive: 0.
